The target of assay [1] is PfPPP8-smV5 (P. falciparum 3D7) (UniProt C6S3C9). The assay is described as follows: affinity purification with mass spectrometry; synchronised PfPPP8-smV5^Tet; PfCINCH-smMyc schizonts and parental 3D7 as control; lysed in RIPA buffer with protease inhibitors, sonicated; supernatant on magnetic anti-V5 and anti-Myc beads overnight at 4 °C; washed with RIPA and PBS; on-bead …; two biological replicates, consensus hits absent from the control.

By UniProt entry, the sequences of proteins in these tests, tags left out. Where a name states a change or a piece, a line headed by the entry shows the natural chain unless it says otherwise.
UniProt C6S3C9: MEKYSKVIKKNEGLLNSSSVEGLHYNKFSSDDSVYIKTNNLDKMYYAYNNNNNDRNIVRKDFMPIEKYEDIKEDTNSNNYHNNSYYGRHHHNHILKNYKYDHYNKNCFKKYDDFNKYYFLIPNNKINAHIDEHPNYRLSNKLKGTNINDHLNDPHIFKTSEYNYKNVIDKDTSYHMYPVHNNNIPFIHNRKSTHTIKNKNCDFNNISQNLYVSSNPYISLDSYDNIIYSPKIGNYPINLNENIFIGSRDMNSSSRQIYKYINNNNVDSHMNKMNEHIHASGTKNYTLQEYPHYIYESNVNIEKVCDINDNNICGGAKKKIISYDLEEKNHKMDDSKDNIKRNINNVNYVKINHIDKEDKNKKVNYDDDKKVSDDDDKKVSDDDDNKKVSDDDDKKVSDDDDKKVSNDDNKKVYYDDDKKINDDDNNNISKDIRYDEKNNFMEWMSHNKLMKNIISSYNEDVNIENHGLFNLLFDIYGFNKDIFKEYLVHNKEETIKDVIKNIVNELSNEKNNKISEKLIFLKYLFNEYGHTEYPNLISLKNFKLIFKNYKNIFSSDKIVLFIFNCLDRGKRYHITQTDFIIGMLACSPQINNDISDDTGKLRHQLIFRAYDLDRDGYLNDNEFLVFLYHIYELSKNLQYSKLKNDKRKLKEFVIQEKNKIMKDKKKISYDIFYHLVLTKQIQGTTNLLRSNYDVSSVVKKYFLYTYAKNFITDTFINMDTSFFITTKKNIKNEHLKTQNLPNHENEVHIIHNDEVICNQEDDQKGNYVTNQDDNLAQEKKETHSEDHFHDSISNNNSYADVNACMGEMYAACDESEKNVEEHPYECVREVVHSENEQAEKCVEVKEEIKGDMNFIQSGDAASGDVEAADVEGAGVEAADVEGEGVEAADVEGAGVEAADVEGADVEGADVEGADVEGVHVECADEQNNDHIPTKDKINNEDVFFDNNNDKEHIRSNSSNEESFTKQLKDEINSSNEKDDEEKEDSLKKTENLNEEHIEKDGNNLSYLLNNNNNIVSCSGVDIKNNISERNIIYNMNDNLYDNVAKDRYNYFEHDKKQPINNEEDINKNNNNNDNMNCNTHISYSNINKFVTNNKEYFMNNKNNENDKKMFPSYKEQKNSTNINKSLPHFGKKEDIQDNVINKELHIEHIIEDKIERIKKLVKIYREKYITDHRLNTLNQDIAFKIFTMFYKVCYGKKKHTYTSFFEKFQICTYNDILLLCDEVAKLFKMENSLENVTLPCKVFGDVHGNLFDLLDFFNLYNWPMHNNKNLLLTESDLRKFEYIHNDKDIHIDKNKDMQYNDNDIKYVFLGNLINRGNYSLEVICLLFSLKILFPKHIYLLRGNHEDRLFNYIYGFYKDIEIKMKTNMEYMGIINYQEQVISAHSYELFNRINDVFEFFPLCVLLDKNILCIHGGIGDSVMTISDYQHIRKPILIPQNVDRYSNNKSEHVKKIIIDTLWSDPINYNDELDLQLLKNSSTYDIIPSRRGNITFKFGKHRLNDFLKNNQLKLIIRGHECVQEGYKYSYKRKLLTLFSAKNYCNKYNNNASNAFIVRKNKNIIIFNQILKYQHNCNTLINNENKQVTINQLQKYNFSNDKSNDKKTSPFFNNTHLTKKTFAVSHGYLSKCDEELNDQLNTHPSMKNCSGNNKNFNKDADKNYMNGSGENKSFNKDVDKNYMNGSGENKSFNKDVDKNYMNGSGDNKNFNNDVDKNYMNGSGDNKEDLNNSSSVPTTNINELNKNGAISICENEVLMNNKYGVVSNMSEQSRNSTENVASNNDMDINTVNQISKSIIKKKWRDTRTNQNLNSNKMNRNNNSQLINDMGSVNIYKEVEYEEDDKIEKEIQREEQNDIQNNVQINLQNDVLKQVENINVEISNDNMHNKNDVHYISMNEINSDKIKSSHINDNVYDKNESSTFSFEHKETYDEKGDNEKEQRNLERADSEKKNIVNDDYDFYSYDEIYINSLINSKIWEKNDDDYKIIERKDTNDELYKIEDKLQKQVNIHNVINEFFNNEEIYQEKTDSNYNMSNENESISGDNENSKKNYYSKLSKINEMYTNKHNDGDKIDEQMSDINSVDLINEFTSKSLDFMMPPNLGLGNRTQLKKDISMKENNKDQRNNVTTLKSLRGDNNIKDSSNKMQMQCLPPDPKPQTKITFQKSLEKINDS
UniProt A0A144A488: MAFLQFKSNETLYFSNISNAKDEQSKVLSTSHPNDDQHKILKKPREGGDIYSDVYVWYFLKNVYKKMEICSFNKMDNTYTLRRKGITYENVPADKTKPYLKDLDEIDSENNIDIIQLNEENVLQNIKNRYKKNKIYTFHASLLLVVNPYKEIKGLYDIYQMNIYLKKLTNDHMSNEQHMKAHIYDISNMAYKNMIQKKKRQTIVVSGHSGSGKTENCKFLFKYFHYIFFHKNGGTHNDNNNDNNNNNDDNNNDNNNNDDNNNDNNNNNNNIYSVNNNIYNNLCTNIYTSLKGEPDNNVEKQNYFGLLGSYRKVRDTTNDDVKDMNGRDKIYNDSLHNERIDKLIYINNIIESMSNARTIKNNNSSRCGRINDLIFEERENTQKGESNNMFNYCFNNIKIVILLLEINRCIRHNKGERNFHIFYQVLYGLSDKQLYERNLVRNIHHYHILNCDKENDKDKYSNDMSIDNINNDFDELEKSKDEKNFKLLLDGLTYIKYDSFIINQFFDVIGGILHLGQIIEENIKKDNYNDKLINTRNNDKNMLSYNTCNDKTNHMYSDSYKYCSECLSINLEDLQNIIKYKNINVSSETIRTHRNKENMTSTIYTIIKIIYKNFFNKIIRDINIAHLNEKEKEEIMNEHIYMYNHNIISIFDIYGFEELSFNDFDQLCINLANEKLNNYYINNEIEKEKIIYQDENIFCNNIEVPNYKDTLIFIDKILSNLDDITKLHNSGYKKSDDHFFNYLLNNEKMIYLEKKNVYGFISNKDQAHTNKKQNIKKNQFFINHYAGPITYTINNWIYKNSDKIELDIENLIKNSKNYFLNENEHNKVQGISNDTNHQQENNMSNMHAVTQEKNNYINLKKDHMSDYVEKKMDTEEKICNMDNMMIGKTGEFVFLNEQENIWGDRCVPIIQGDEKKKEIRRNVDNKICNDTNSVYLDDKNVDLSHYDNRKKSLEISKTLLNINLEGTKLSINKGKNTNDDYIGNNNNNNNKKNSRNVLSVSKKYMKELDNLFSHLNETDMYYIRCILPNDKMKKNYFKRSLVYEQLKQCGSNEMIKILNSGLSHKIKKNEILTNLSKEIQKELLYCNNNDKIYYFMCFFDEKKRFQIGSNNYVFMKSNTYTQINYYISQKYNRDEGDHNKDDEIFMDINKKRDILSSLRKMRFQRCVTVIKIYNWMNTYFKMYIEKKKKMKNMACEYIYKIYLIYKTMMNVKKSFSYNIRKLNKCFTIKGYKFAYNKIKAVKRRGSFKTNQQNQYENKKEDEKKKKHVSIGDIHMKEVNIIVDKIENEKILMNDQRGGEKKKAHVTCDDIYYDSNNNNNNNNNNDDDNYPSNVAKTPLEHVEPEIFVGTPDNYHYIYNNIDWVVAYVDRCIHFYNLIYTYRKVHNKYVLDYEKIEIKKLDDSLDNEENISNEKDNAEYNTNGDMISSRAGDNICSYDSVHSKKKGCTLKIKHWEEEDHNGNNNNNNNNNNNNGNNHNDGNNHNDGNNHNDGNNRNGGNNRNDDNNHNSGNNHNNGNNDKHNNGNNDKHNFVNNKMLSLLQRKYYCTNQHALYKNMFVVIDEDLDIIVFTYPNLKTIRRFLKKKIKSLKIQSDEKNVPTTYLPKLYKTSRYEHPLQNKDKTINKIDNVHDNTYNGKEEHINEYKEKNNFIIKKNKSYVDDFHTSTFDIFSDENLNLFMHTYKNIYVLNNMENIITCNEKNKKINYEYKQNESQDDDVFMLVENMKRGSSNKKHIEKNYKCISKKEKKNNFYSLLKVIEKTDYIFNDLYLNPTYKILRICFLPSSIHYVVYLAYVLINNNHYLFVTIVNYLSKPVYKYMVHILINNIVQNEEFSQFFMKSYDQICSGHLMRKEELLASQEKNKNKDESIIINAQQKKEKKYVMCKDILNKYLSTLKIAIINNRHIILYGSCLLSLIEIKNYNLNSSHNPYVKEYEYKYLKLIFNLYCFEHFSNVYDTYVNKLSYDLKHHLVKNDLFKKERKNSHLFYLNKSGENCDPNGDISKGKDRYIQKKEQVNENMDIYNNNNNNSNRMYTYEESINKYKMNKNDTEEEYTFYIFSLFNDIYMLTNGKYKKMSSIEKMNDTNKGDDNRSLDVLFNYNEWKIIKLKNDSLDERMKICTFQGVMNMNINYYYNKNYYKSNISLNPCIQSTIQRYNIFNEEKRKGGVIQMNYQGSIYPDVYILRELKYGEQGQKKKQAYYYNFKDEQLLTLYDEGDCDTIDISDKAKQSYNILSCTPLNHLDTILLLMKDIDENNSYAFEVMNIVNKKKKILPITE

The target in assay [2] is PfCINCH-smMyc (P. falciparum 3D7). The description is as above.

These are yes or no findings as the source states them, for the method shown. Binding seen in cells or lysates may run through a third protein. Here binding means that the protein was enriched with, or labelled near, the bait; the list need not be complete.

For the molecule PfMyoJ (from UniProt A0A144A488), in assay [1], the binding result is reported as “binds”.

B1: PF3D7_0214700 (protein, UniProt O96227 1-301)
chain: MINTFQIRDFNKFPFSSNEQKIISHFTNEHNDKFNDNLSQLQIPQELKKNIITNNLHDEKVILTDNNMKEKCNHIDRDTITKEISIERLLHKIRNLENEKKFLLRFLENKKNIELEYKKALETQAAYVNSENKKSQFYENEWLNMKSLEYSLINSGKEPLRQSLEMLYDDSNINKLGGLTRNQEMFIIKLIEDHKNLNKERSIISKKYNEAVDANFQLYQQNEMLKAQNISLLEKNKDLVNEELDKKLNALNSSLIYVQKENIQLQDVLDQYSKLIKNIKDCPDMKAVNDELNKFANYLSI
On to B1, for which the binding entry in assay [2] and in assay [1] was “binds” throughout.

The values are drawn from paper PMC10317984.
